Measurements taken from patent US20160201132A1, “GENE EXPRESSION BIOMARKERS OF LAQUINIMOD RESPONSIVENESS” (Teva Pharmaceutical Industries Ltd., priority 2013, published 2016).
Where “and” joins values, the source holds several entries; their conditions need not be identical. Equal entries are not always repeated. The source gives many values for each of these; only a part stands here.

System: PBMC of RRMS patients
Assay: Gene expression microarray analysis (HG-U133A-2) of PBMC from RRMS patients treated with LAQ, ancillary study to ALLEGRO
Assay type: in vivo, human
From the text: The goal of this ancillary study was to characterize gene expression changes and corresponding biological mechanisms induced in PBMC of RRMS patients by LAQ treatment. According to ALLEGRO clinical trial inclusion criteria, 25 patients were randomly assigned to receive LAQ (n=13, age 38.8±2.3 years, female/male ratio: 8/5) or placebo (n=12, age 37.2±3.4 years, female/male ratio: 8/4).
Peripheral blood samples were obtained from RRMS patients at baseline before start of LAQ treatment or placebo, after 0, 1, 6 and 24 month of treatment (visit 0, 1, 6 and 7 according to ALLEGRO clinical trial protocol correspondently) for gene microarray analysis.
Briefly, 1) Peripheral blood mononuclear cells (PBMC) were obtained from RRMS patients that participated in ALLEGRO and were treated daily with 0.6 mg LAQ or placebo. PBMC were subjected for gene expression analysis (HU-133A-2-Affymatrix arrays) at baseline and at 1 and 6 months of LAQ treatment; 2) Data was analyzed by Partek Genomics Solution software. Most informative genes (MIGs) were defined as those that differentiated between groups with p<0.01. Gene functional annotation, enrichment and pathway analysis were performed by Ingenuity software. For each time point, genes that changed in placebo group were excluded from further analysis; and 3) Verification of LAQ related mechanism was performed by Western blot.
PBMC were extracted from 15 ml peripheral blood, separated by Ficoll-Hypaque gradient. Total RNA was extracted using both Trizol (Invitrogen, USA) and Phase-Lock-Gel columns (Eppendorf, Germany) including a DNase digestion step. RNA integrity was assessed by RNA Experion automated electrophoresis system (Bio-Rad Laboratories, Hercules, Calif.).
Probe synthesis using 3 μg total RNA, hybridization, detection, and scanning was performed according to the standard Affymetrix, Inc. USA protocols; cDNA was synthesized using the Two-Cycle cDNA Synthesis Kit (Affymetrix, Inc., USA), and in-vitro transcription performed with the GeneChip IVT Labeling Kit (Affymetrix, Inc., USA). The biotin-labeled IVT-RNA was hybridized to HG-U133A-2 arrays containing 18,400 gene transcripts, each corresponding to 14,500 well-annotated human genes, washed in a GeneChip Fluidics Station 450 (Hewlett Packard, USA, GeneArray-™ scanner G2500A) and scanned according to the manufacturer's protocol (Affymetrix, Inc., USA).
Data analysis was performed on Partek Genomics Solution software (www.partek.com; Partek Incorporated, St. Louis, Mo.). Expression values were computed from raw CEL files by applying the Robust Multi-Chip Average (RMA) background correction algorithm. RMA correction included: 1) values background correction; 2) quintile normalization; 3) log 2 transformation; and 4) median polish summarization. The ANOVA, Repeated Measures and correlation analysis implicated in Partek software ware applied to evaluate LAQ effects. Most informative genes MIGs were defined as those that differentiated between experimental groups with p<0.01. All p-values were calculated for False Discovery Rate (FDR) multiple test correction at p=0.05.
Additionally, significance of individual genes was tested by parametric T-test and non parametric Mann-Whitney test using Bootstrapping approach based on repeated permutations of the data with 5% FDR for multiple testing.
Gene functional annotation, enrichment, and pathway analyses to identify the leading biological pathways that operated under LAQ treatment were performed by Ingenuity Pathways Analysis software (www.ingenuity.com).
ANOVA analysis was used to compare PBMC gene expression after 1, 6 or 24 month of LAQ treatment with baseline gene expression.
For each time point inventors performed analysis source of variation in dataset. (FIG. 1). Age, gender and batch effects were considered as confounders regarding LAQ or Placebo related changes. For each time point genes associated with Placebo effect were evaluated and excluded from further analysis. […]

CCN(C(=O)c1c(O)c2c(Cl)cccc2n(C)c1=O)c1ccccc1 [LAQ, 5-chloro-N-ethyl-4-hydroxy-1-methyl-2-oxo-N-phenyl-1,2-dihydroquinoline-3-carboxamide]
Fold-Change (4.0 vs. 0.0) (gene KYNU, after six months of LAQ): −1.305
Fold-Change (4.0 vs. 0.0) (gene LAD1, six months of treatment): −1.15
Fold-Change (4.0 vs. 0.0) (gene LAMA1, PBMC, six months of LAQ treatment): −1.1216
Fold-Change (4.0 vs. 0.0) (gene LAMA4): −1.188
Fold-Change (4.0 vs. 0.0) (gene LAMA4, PBMC, six months of LAQ treatment): −1.117
Fold-Change (4.0 vs. 0.0) (gene LAMB1, after six months of LAQ): −1.129
Fold-Change (4.0 vs. 0.0) (gene LAMB4, PBMC, six months of LAQ treatment): −1.105
Fold-Change (4.0 vs. 0.0) (gene LDB3): −1.188
Fold-Change (4.0 vs. 0.0) (gene LDHA, after six months of LAQ): −1.126
Fold-Change (4.0 vs. 0.0) (gene LDLR, after six months of LAQ): −1.1433
Fold-Change (4.0 vs. 0.0) (gene LETM1): −1.184
Fold-Change (4.0 vs. 0.0) (gene LIPF, six months of treatment): −1.153
Fold-Change (4.0 vs. 0.0) (gene LOC55908): −1.1916
Fold-Change (4.0 vs. 0.0) (gene LOC79999, PBMC, six months of LAQ treatment): −1.118
Fold-Change (4.0 vs. 0.0) (gene LOC81691, six months of treatment): −1.156
Fold-Change (4.0 vs. 0.0) (gene LOC440345 /// LOC440354 /// LOC595101 /// LOC641298 /// SMG1, six months of treatment): −1.153
Fold-Change (4.0 vs. 0.0) (gene LOC441601, after six months of LAQ): −1.246
Fold-Change (4.0 vs. 0.0) (gene LOC728395 /// TSPY1 /// TSPY3, PBMC, six months of LAQ treatment): −1.106
Fold-Change (4.0 vs. 0.0) (gene LOC100131613, after six months of LAQ): −1.126
Fold-Change (4.0 vs. 0.0) (gene LOC100287483, PBMC, six months of LAQ treatment): −1.104
Fold-Change (4.0 vs. 0.0) (gene LOC100288442 /// LOC100289169 /// LOC728888 /// LOC729602 /// NPIPL2 /// NPIPL3 /// PDXDC2, PBMC, six months of LAQ treatment): −1.115
Fold-Change (4.0 vs. 0.0) (gene LOC100289791, six months of treatment): −1.1539
Fold-Change (4.0 vs. 0.0) (gene LOC100293871, six months of treatment): −1.151
Fold-Change (4.0 vs. 0.0) (gene LOX, after six months of LAQ): −1.133
Fold-Change (4.0 vs. 0.0) (gene LPAR3, after six months of LAQ): −1.228
Fold-Change (4.0 vs. 0.0) (gene LPAR4, after six months of LAQ): −1.251
Fold-Change (4.0 vs. 0.0) (gene LPHN2, after six months of LAQ): −1.134
Fold-Change (4.0 vs. 0.0) (gene LRP4): −1.189
Fold-Change (4.0 vs. 0.0) (gene LRP12, after six months of LAQ): −1.423
Fold-Change (4.0 vs. 0.0) (gene LRP12, six months of treatment): −1.155
Fold-Change (4.0 vs. 0.0) (gene LRRC17, six months of treatment): −1.152
Fold-Change (4.0 vs. 0.0) (gene LRRC19, PBMC, six months of LAQ treatment): −1.118
Fold-Change (4.0 vs. 0.0) (gene LRRC37B2, six months of treatment): −1.152
Fold-Change (4.0 vs. 0.0) (gene LRRC50, after six months of LAQ): −1.331
Fold-Change (4.0 vs. 0.0) (gene LRRC61, after six months of LAQ): −1.144
Fold-Change (4.0 vs. 0.0) (gene LRRN3, PBMC, six months of LAQ treatment): 2.526 and 2.547
Fold-Change (4.0 vs. 0.0) (gene LRTM1, six months of treatment): −1.159
Fold-Change (4.0 vs. 0.0) (gene LYZL6, after six months of LAQ): −1.141
Fold-Change (4.0 vs. 0.0) (gene LZTS1): −1.177
Fold-Change (4.0 vs. 0.0) (gene MAGEA6, after six months of LAQ): −1.14
Fold-Change (4.0 vs. 0.0) (gene MAGEA12, after six months of LAQ): −1.14
Fold-Change (4.0 vs. 0.0) (gene MAGOH2, six months of treatment): −1.149
Fold-Change (4.0 vs. 0.0) (gene MAOA, after six months of LAQ): −1.137
Fold-Change (4.0 vs. 0.0) (gene MAP1A, after six months of LAQ): −1.134
Fold-Change (4.0 vs. 0.0) (gene MAP2K2, after six months of LAQ): −1.262
Fold-Change (4.0 vs. 0.0) (gene MAP4K3, after six months of LAQ): −1.377
Fold-Change (4.0 vs. 0.0) (gene MAPK12, PBMC, six months of LAQ treatment): −1.108
Fold-Change (4.0 vs. 0.0) (gene MARCH8, six months of treatment): −1.161
Fold-Change (4.0 vs. 0.0) (gene MCM3AP, six months of treatment): −1.147
Fold-Change (4.0 vs. 0.0) (gene MDFI, six months of treatment): −1.154
Fold-Change (4.0 vs. 0.0) (gene MDK, six months of treatment): −1.155
Fold-Change (4.0 vs. 0.0) (gene MDM2, after six months of LAQ): −1.234
Fold-Change (4.0 vs. 0.0) (gene MECOM, PBMC, six months of LAQ treatment): −1.098
Fold-Change (4.0 vs. 0.0) (gene METTL7A, PBMC, six months of LAQ treatment): −1.11
Fold-Change (4.0 vs. 0.0) (gene MFAP3): −1.19
Fold-Change (4.0 vs. 0.0) (gene MFAP3L, after six months of LAQ): −1.275
Fold-Change (4.0 vs. 0.0) (gene MFAP3L, six months of treatment): −1.146
Fold-Change (4.0 vs. 0.0) (gene MGAT2, after six months of LAQ): −1.2251
Fold-Change (4.0 vs. 0.0) (gene MLANA, PBMC, six months of LAQ treatment): −1.104
Fold-Change (4.0 vs. 0.0) (gene MLL, six months of treatment): −1.158
Fold-Change (4.0 vs. 0.0) (gene MLLT4, after six months of LAQ): −1.236
Fold-Change (4.0 vs. 0.0) (gene MLLT10, after six months of LAQ): −1.125
Fold-Change (4.0 vs. 0.0) (gene MLNR, six months of treatment): −1.15
Fold-Change (4.0 vs. 0.0) (gene MMP16, after six months of LAQ): −1.1424
Fold-Change (4.0 vs. 0.0) (gene MMP26, after six months of LAQ): −1.226
Fold-Change (4.0 vs. 0.0) (gene MPPED2, after six months of LAQ): −1.1435
Fold-Change (4.0 vs. 0.0) (gene MRAS, after six months of LAQ): −1.271
Fold-Change (4.0 vs. 0.0) (gene MRE11A, six months of treatment): −1.153
Fold-Change (4.0 vs. 0.0) (gene MSTN, after six months of LAQ): −1.1234
Fold-Change (4.0 vs. 0.0) (gene MSX2, six months of treatment): −1.152
Fold-Change (4.0 vs. 0.0) (gene MT1M, after six months of LAQ): −1.137
Fold-Change (4.0 vs. 0.0) (gene MT4): −1.19
Fold-Change (4.0 vs. 0.0) (gene MTCP1): −1.195
Fold-Change (4.0 vs. 0.0) (gene MTMR3, after six months of LAQ): −1.302
Fold-Change (4.0 vs. 0.0) (gene MTMR7, PBMC, six months of LAQ treatment): −1.12
Fold-Change (4.0 vs. 0.0) (gene MUC1, after six months of LAQ): −1.126
Fold-Change (4.0 vs. 0.0) (gene MUC5AC, six months of treatment): −1.148
Fold-Change (4.0 vs. 0.0) (gene MUC8, after six months of LAQ): −1.228
Fold-Change (4.0 vs. 0.0) (gene MYBPH, after six months of LAQ): −1.136
Fold-Change (4.0 vs. 0.0) (gene MYH4, after six months of LAQ): −1.14
Fold-Change (4.0 vs. 0.0) (gene MYH6, PBMC, six months of LAQ treatment): −1.111
Fold-Change (4.0 vs. 0.0) (gene MYH11, after six months of LAQ): −1.141
